In PMC3708830:
These are yes or no findings as the source states them, for the method shown. Binding seen in cells or lysates may run through a third protein. Some binding calls cover weakened binding; strength is not graded here. For some assays here: Sequences can lack the tags named with a protein.

Chains of the proteins cited; added tags and fusions are not shown.
UniProt O09106: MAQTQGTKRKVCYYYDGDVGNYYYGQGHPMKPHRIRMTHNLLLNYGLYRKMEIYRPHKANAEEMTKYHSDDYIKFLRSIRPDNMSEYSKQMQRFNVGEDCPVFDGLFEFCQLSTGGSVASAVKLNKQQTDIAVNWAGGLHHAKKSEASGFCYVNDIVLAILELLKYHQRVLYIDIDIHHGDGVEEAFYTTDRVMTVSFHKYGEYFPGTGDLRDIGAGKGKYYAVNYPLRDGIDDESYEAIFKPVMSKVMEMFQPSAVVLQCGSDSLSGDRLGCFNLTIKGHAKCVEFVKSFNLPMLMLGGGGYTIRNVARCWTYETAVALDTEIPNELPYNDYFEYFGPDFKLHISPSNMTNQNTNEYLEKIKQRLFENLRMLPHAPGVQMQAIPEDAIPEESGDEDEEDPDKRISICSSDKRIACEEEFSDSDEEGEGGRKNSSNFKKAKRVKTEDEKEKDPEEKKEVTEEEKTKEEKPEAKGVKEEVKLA
UniProt P70288: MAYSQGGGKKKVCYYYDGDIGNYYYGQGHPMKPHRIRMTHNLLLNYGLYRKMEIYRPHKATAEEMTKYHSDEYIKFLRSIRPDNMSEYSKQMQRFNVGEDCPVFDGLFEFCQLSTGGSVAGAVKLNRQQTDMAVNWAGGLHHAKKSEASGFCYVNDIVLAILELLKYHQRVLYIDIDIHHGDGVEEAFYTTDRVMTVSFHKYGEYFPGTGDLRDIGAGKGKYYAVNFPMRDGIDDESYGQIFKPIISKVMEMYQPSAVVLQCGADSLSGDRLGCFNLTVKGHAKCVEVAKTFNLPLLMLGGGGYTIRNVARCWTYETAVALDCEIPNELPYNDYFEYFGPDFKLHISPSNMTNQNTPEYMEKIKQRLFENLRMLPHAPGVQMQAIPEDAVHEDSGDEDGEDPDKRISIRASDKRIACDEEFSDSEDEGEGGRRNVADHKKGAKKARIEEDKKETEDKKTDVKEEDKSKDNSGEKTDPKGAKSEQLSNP

T1: O-linked β-N-acetylglucosamine transferase (mouse (endogenous in ventricular tissue)) (UniProt Q8CGY8)
T1 sequence: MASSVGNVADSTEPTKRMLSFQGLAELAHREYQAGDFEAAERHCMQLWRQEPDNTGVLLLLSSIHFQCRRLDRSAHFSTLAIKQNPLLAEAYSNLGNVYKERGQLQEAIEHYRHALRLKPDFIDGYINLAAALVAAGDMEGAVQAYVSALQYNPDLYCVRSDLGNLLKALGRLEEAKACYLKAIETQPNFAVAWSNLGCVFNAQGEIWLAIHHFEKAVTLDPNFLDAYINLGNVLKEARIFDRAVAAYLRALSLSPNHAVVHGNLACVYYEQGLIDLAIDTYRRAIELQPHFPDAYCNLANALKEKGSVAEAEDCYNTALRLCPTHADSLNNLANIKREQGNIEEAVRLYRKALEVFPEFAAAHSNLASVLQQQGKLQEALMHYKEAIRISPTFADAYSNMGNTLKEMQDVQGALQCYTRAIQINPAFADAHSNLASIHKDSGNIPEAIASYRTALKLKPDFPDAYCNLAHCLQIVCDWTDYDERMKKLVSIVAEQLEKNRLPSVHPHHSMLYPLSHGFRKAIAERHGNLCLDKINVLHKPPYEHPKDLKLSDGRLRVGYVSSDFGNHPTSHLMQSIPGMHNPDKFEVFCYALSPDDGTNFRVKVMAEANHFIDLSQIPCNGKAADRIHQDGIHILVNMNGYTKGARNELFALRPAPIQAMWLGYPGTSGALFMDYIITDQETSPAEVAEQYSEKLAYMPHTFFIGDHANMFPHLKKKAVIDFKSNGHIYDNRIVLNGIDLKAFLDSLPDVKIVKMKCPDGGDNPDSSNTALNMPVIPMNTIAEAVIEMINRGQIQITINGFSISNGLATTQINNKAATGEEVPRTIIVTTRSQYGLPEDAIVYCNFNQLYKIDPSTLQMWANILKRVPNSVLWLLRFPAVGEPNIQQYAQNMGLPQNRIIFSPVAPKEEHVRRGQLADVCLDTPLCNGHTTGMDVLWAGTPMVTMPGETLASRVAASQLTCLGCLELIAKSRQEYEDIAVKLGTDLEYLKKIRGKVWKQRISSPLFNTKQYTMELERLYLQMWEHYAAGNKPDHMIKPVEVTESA

T2: Mammalian switch-independent 3A (mouse (endogenous in ventricular tissue)) (UniProt Q60520)
T2 sequence: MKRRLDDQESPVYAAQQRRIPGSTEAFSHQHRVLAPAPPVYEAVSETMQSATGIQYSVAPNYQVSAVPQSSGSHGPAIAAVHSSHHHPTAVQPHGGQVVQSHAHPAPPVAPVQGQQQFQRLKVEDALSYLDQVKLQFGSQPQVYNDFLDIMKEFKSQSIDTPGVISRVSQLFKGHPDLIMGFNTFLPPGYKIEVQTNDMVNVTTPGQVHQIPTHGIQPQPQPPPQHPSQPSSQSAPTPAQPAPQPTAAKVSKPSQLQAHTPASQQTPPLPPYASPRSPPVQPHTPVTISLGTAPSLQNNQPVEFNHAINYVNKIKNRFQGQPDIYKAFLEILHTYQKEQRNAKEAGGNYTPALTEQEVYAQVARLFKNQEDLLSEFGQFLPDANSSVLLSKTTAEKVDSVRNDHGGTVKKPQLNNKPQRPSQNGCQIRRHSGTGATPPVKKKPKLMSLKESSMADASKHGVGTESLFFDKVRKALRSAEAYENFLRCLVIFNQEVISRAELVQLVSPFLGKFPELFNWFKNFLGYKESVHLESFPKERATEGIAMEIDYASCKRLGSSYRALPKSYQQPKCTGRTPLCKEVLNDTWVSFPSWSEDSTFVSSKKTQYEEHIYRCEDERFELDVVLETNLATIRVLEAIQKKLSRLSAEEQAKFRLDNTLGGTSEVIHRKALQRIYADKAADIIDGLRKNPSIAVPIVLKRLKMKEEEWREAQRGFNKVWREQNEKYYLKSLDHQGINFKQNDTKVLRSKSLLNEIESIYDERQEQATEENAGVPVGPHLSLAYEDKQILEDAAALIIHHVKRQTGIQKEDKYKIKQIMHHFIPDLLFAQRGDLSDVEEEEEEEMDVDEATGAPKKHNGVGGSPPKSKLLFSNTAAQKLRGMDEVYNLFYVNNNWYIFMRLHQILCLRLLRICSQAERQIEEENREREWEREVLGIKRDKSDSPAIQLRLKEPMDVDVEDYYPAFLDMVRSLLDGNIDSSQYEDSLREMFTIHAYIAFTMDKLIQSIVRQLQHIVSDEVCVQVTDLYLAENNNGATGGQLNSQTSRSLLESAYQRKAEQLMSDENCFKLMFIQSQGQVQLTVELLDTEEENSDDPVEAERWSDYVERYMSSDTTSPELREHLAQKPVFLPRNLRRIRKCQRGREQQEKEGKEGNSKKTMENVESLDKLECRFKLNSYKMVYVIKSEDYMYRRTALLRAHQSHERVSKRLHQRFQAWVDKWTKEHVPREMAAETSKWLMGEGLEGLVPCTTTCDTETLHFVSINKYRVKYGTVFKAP

B1: Mammalian switch-independent 3A (protein, UniProt Q60520 1-1274)
chain: T2 sequence
B2: Repressor element-1 silencing transcription factor (protein, UniProt Q8VIG1 1-1082)
chain: MATQVMGQSSGGGSLFNNSANMGMALTNDMYDLHELSKAELAAPQLIMLANVALTGEASGSCCDYLVGEERQMAELMPVGDNHFSESEGEGLEESADLKGLENMELGSLELSAVEPQPVFEASAAPEIYSANKDPAPETPVAEDKCRSSKAKPFRCKPCQYEAESEEQFVHHIRIHSAKKFFVEESAEKQAKAWESGSSPAEEGEFSKGPIRCDRCGYNTNRYDHYMAHLKHHLRAGENERIYKCIICTYTTVSEYHWRKHLRNHFPRKVYTCSKCNYFSDRKNNYVQHVRTHTGERPYKCELCPYSSSQKTHLTRHMRTHSGEKPFKCDQCNYVASNQHEVTRHARQVHNGPKPLNCPHCDYKTADRSNFKKHVELHVNPRQFNCPVCDYAASKKCNLQYHFKSKHPTCPSKTMDVSKVKLKKTKKREADLLNNAVSNEKMENEQTKTKGDVSGKKNEKPVKAVGKDASKEKKPGSSVSVVQVTTRTRKSAVAAETKAAEVKHTDGQTGNNPEKPCKAKKNKRKKDAEAHPSEEPVNEGPVTKKKKKSECKSKIGTNVPKGGGRAEERPGVKKQSASLKKGTKKTPPKTKTSKKGGKLAPKGMGQTEPSSGALAQVGVSPDPALIQAEVTGSGSSQTELPSPMDIAKSEPAQMEVSLTGPPPVEPAQMEPSPAKPPQVEAPTYPQPPQRGPAPPTGPAPPTGPAPPTEPAPPTGLAEMEPSPTEPSQKEPPPSMEPPCPEELPQAEPPPMEDCQKELPSPVEPAQIEVAQTAPTQVQEEPPPVSEPPRVKPTKRSSLRKDRAEKELSLLSEMARQEQVLMGVGLVPVRDSKLLKGNKSAQDPPAPPSPSPKGNSREETPKDQEMVSDGEGTIVFPLKKGGPEEAGESPAELAALKESARVSSSEQNSAMPEGGASHSKCQTGSSGLCDVDTEQKTDTVPMKDSAAEPVSPPTPTVDRDAGSPAVVASPPITLAENESQEIDEDEGIHSHDGSDLSDNMSEGSDDSGLHGARPTPPEATSKNGKAGLAGKVTEGEFVCIFCDRSFRKEKDYSKHLNRHLVNVYFLEEAAEEQEEQEEREEQE
B3: O-linked β-N-acetylglucosamine transferase (enzyme, UniProt Q8CGY8 1-1046)
chain: T1 sequence

Tests used:
Test in all cases: co-IP; ventricular lysates of C57BL/6J and db/db mice, sedentary or treadmill exercised for 4 weeks; precleared over protein A/G agarose, IP overnight at 4°C on beads with primary antibody (anti-OGT, anti-mSin3A or anti-HDAC1), eluted at 100°C, immunoblot; lysis buffer with PUGNAc, phosphatase and protease inhibitors; negative control: IP without antibody
[1] = target: T1, O-linked β-N-acetylglucosamine transferase (mouse (endogenous in ventricular tissue))
[2] = target: T2, Mammalian switch-independent 3A (mouse (endogenous in ventricular tissue))
[3] = target: Histone deacetylase 1 (mouse (endogenous in ventricular tissue)) (UniProt O09106)

| Molecule | binding [1] | binding [2] | binding [3] |
| --- | --- | --- | --- |
| Histone deacetylase 2 (from UniProt P70288 1-488) (enzyme) | binds | binds |  |
| Histone deacetylase 1 (from UniProt O09106 1-482) (enzyme) |  | binds |  |
| B1 | binds |  | binds |
| B2 | binds | binds |  |
| B3 |  | binds |  |
